Patent US20210346398A1, “COMBINATIONS WITH A C-19 STEROID FOR TREATING CANCERS” (priority 2018, published 2021)
At least one compound was matched to its structure with a doubt left.

Tests used:
[1] = system: LNCaP cells; test: WST-1 proliferation assay of LNCaP cells; details: day 5
[2] = system: T-47D cells; test: WST-1 proliferation assay of T-47D cells; format: cell-based, human; details: FIG. 1, Palbociclib 50, 100, 200, 400 nM plus 4-OHT 20 μM
From the text: The human breast cancer cell line T-47 D (ACC 739) was obtained from DSMZ as frozen cell pellet (Deutsche Sammlung von Mikroorganismen und Zellkulturen). Originally, these cells T-47D cell line was isolated by Keydar et al. (1979) from a pleural effusion obtained from a patient with an infiltrating ductal carcinoma of the breast T-47D is expressing the ER, PR and AR but lacking HER2/neu overexpression. Thus, T-47D may represent a cell line representative for the most prevalent breast cancer subtype.
T-47D were grown routinely in RPMI medium containing 10% fetal calf serum (FCS) and antibiotics in a humidified incubator at 36.5° C./90% humidity and 5% CO2. Cells were maintained in cell culture bottles for less than 20 passages before the individual experiments were conducted; cell suspensions were cultured 96 well plates and exposed at various concentrations of the individual agents; incubation time varied as indicated in the respective figures. WST-1 assay was used to monitor proliferation at 450 nm wavelength.
Growth was as compared to control using WST-1 assay (monitoring absorption at 450 nm wavelength as indicator for cell viability compared to growth control).
T-47D cells were grown routinely in RPMI medium containing 10% fetal calf serum (FCS) and antibiotics in a humidified incubator at 36.5° C./90% humidity and 5% CO2. […]

Structure (SMILES) | effect on cell growth of the combination with 4-OHT ([1]; FIG. 5, 4-OHT 10 μM plus Abiraterone 10 μM) | effect on cell growth as single compound ([1]; FIG. 5, 4-OHT 10 μM, Abiraterone 10 μM) | effect on proliferation of the combination with 4-OHT compared to the single drugs [2]
C[C@]12CC[C@H](O)CC1=CC[C@@H]1[C@@H]2CC[C@]2(C)C(c3cccnc3)=CC[C@@H]12 [Abiraterone] | significant synergistic effects and growth inhibition | not affected | –
CC(=O)c1c(C)c2cnc(Nc3ccc(N4CCNCC4)cn3)nc2n(C2CCCC2)c1=O [Palbociclib] | – | – | synergistic effect
